Test results from patent EP0103895A2, “Novel hydroxylamine derivatives, production and use thereof” (MEIJI SEIKA KABUSHIKI KAISHA, priority 1982, dated 1984).
Several values for one entry are separate records, joined by “and”; a condition that tells them apart may be missing. Identical values can stand only once. At least one read-out could not be matched to a standard name with certainty.

Legend:
[1] = tested on: fowl roundworm (As. galli); experiment: Anthelmintic test in chickens artificially infected with fowl roundworm, compound added to feed, E.P.G. and worm count up to 21st day (Test Examples A2, B2, C2, D2); type: in vivo, Ascaridia galli
Procedure: Chickens artificially infected with fowl roundworm (As. galli) were employed in groups each of two chickens.
Fecal matter testing was conducted before initiation of the test and on the 7th, 14th and 21st day after initiation of the test. Reduction in worm egg number was examined by calculating E.P.G. (worm eggs per 1 g of fecal matter), and the number of discharged worm bodies and the number of worm bodies remaining in the enteron when the chicken was killed on 21st day were counted to determine the anthelmintic percentage, from which the anthelmintic effect was judged.

[2] = tested on: canine filaria; Dirofilaria immitis; experiment: Test of anthelmintic effect against canine filaria in naturally infected dogs, subcutaneous injection, microfilaria in blood and adult filaria at autopsy (Test Examples A10, B10, C10, D10); type: in vivo; details: dog
Procedure: Eight dogs infected with canine filaria; Diro- filaria immitis (naturally infected dogs) were employed in groups each of two dogs.
The compounds provided for tests were Compound Nos. Al, A3 and A12. 20 mg of each was administered by subcutaneous injection per Kg of body weight to each of the two dogs as a suspension in 1% "Tween 80" solution once per day for three days. As control, 3 ml of the 1% "Tween 80" solution was subcutaneously injected into two dogs once per day for three days.
Before administration and on the 10th day after administration, 20 µl of earlobe blood of each dog was sampled and examined to determine the change in microfilaria (mf) according to the concentrated smear color method, and judgement on the effect on microfilaria (mf) was made. Judgement relating to adult filaria was made on the 10th day after the last administration by killing the dogs and carrying out autopsis.
30 mg of each compound was administered by subcutaneous injection per Kg of body weight to each of the two dogs as a suspension in 1% "Tween 80" solution once per day for three days. As control, 3 ml of the 1% "Tween 80" solution was subcutaneously injected into two dogs once per day for three days.
30 mg of each compound was administered by subcutaneous injection per Kg of body weight to each of two dogs as a suspension in 1% "Tween 80" solution once per day for three days. As control, 3 ml of the 1% "Tween 80" solution was subcutaneously injected to two dogs once per day for three days.
20 mg of each compound was administered by subcutaneous injection per kg of body weight once per day for three days to each of two dogs. These compounds were administered as a suspension in 1% "Tween 80" in the case of Compound No.Dl3 and as solutions dissolved in distilled water for injection in the case of Compounds Nos. D10 and D16, respectively. As control, 3 ml of the 1% "Tween 80" solution was subcutaneously injected into two dogs once per day for three days.

[3] = chickens, 10 ppm added to feed, one value per chicken
[4] = chickens, 50 ppm added to feed, one value per chicken
[5] = 30 mg/Kg x 3, subcutaneous injection, 30 mg/kg
[6] = chickens, 20 ppm added to feed, one value per chicken
[7] = 20 mg/Kg x 3, subcutaneous injection, hydrochloride, 20 mg/kg

C#CCN(OC)C(C)=O [Compound A1, N-propargyl-N-acetyl-O-methylhydroxylamine]
Change of E.P.G. 7th day [1, 3]: 3,100 E.P.G. and 3,000 E.P.G.
Change of E.P.G. 21st day [1, 4]: 0 E.P.G.

C#CCN(OCC)C(C)=O [Compound A2, N-propargyl-N-acetyl-O-ethylhydroxylamine]
Change of E.P.G. 14th day [1, 4]: 0 E.P.G.
Change of E.P.G. 21st day [1, 4]: 0 E.P.G.

C#CCN(OCC=C)C(C)=O [Compound A3, N-propargyl-N-acetyl-O-allylhydroxylamine]
Change of E.P.G. 7th day [1, 3]: 1,200 E.P.G. and 2,400 E.P.G.
Change of E.P.G. 21st day [1, 4]: 0 E.P.G.

C#CCN(OCC=CC)C(C)=O [Compound A4, N-propargyl-N-acetyl-O-crotylhydroxylamine]
Change of E.P.G. 7th day [1, 3]: 5,300 E.P.G. and 3,200 E.P.G.
Change of E.P.G. 21st day [1, 4]: 0 E.P.G.

C#CCN(OCC=C)C(=O)CC [Compound A5, N-propargyl-N-propionyl-0-allylhydroxylamine]
Change of E.P.G. 7th day [1, 3]: 8,000 E.P.G. and 4,300 E.P.G.
Change of E.P.G. 14th day [1, 4]: 100 E.P.G.
Change of E.P.G. 21st day [1, 4]: 0 E.P.G.

C#CCN(OCC=C)C(=O)CCC [Compound A6, N-propargyl-N-butylyl-O-allylhydroxylamine]
Change of E.P.G. 21st day [1, 4]: 0 E.P.G.

C#CCN(OCC=C)C(=O)CCCC [Compound A7, N-propargyl-N-valeroyl-O-allylhydroxylamine]
Change of E.P.G. 14th day [1, 3]: 2,000 E.P.G. and 1,300 E.P.G.
Change of E.P.G. 21st day [1, 4]: 0 E.P.G.

C#CCN(OCC=C)C(=O)CCCCCCC/C=C\CCCCCCCC [Compound A8, N-propargyl-N-oleoyl-O-allylhydroxylamine]
Change of E.P.G. 21st day [1, 4]: 0 E.P.G.

C#CCN(OCC=C)C(=O)CCCCCCCCCCCCCCCCC [Compound A9, N-propargyl-N-stearoyl-N-allylhydroxylamine]
Change of E.P.G. 7th day [1, 4]: 10,300 E.P.G. and 7,400 E.P.G.
Change of E.P.G. 21st day [1, 4]: 0 E.P.G.

C#CCN(OCCCC)C(=O)c1ccccc1 [Compound A10, N-propargyl-N-benzoyl-O-butylhydroxylamine]
Change of E.P.G. 14th day [1, 3]: 1,100 E.P.G. and 2,600 E.P.G.
Change of E.P.G. 21st day [1, 4]: 0 E.P.G.

C#CCN(OCC=C)C(=O)c1ccccc1 [Compound A11, N-propargyl-N-benzoyl-O-allylhydroxylamine]
Change of E.P.G. 21st day [1, 4]: 0 E.P.G.

C#CCN(OCC=C)C(=O)c1ccc(F)cc1 [Compound A12, N-propargyl-N-(p-fluorobenzoyl)-O-allylhydroxylamine]
Change of E.P.G. 7th day [1, 3]: 2,100 E.P.G. and 1,900 E.P.G.
Change of E.P.G. 14th day [1, 3]: 500 E.P.G. and 900 E.P.G.
Change of E.P.G. 14th day [1, 4]: 0 E.P.G.
Change of E.P.G. 21st day [1, 4]: 0 E.P.G.

C#CCN(C=O)OCC=C [Compound A13, N-propargyl-N-formyl-0-allylhydroxylamine]
Change of E.P.G. 7th day [1, 3]: 10,300 E.P.G. and 5,800 E.P.G.
Change of E.P.G. 7th day [1, 4]: 3,600 E.P.G. and 5,300 E.P.G.
Change of E.P.G. 21st day [1, 4]: 0 E.P.G.

C=CCN(OC)C(C)=O [Compound B1, N-allyl-N-acetyl-O-methylhydroxylamine]
Change of E.P.G. 14th day [1, 4]: 0 E.P.G.
Change of E.P.G. 21st day [1, 4]: 0 E.P.G.
Effect on adult filaria: Percent of worms killed [2, 5]: 57%

C=CCN(OC)C(=O)CC [Compound B2, N-allyl-N-propionyl-O-methylhydroxylamine]
Change of E.P.G. 14th day [1, 6]: 3,400 E.P.G. and 2,600 E.P.G.
Change of E.P.G. 7th day [1, 4]: 2,400 E.P.G. and 1,300 E.P.G.
Change of E.P.G. 21st day [1, 4]: 0 E.P.G.

C=CCN(OC)C(=O)CCCCCCC/C=C\CCCCCCCC [Compound B4, N-allyl-N-oleoyl-O-methylhydroxylamine]
Change of E.P.G. 7th day [1, 6]: 1,200 E.P.G. and 2,400 E.P.G.
Change of E.P.G. 21st day [1, 4]: 0 E.P.G.

C=CCN(OC)C(=O)c1ccccc1 [Compound B5, N-allyl-N-benzoyl-O-methylhydroxylamine]
Change of E.P.G. 14th day [1, 6]: 1,100 E.P.G. and 2,600 E.P.G.
Change of E.P.G. 7th day [1, 4]: 10,300 E.P.G. and 7,400 E.P.G.
Change of E.P.G. 21st day [1, 4]: 0 E.P.G.

C=CCN(C=O)OC [Compound B6, N-allyl-N-formyl-O-methylhydroxylamine]
Change of E.P.G. 7th day [1, 4]: 5,200 E.P.G. and 4,300 E.P.G.
Change of E.P.G. 21st day [1, 4]: 0 E.P.G.

C=CCN(OCC)C(C)=O [Compound B8, N-allyl-N-acetyl-O-ethylhydroxylamine]
Effect on adult filaria: Percent of worms killed [2, 5]: 62%

C=CCN(OCC)C(=O)CC [Compound B9, N-allyl-N-propionyl-O-ethylhydroxylamine]
Effect on adult filaria: Percent of worms killed [2, 5]: 71% and 50%

C=CCN(C=O)OCC [Compound B15, N-allyl-N-formyl-O-ethylhydroxylamine]
Change of E.P.G. 7th day [1, 6]: 2,100 E.P.G. and 1,900 E.P.G.
Change of E.P.G. 14th day [1, 6]: 500 E.P.G. and 900 E.P.G.
Change of E.P.G. 14th day [1, 4]: 0 E.P.G.
Change of E.P.G. 21st day [1, 4]: 0 E.P.G.

CC=CCN(OCC)C(C)=O [Compound B16, N-crotyl-N-acetyl-O-ethylhydroxylamine]
Change of E.P.G. 21st day [1, 4]: 0 E.P.G.

C=CCN(OCCC)C(C)=O [Compound B17, N-allyl-N-acetyl-O-propylhydroxylamine]
Change of E.P.G. 21st day [1, 4]: 0 E.P.G.

C=CCN(OCCCC)C(C)=O [Compound B18, N-allyl-N-acetyl-0-butylhydroxylamine]
Change of E.P.G. 21st day [1, 4]: 0 E.P.G.

C=CCN(OCCCC)C(=O)c1ccccc1 [Compound B19, N-allyl-N-benzoyl-0-butylhydroxylamine]
Change of E.P.G. 7th day [1, 6]: 3,100 E.P.G. and 3,000 E.P.G.
Change of E.P.G. 21st day [1, 4]: 0 E.P.G.

C=CCN(OCCCCC)C(C)=O [Compound B20]
Change of E.P.G. 7th day [1, 6]: 8,900 E.P.G. and 5,200 E.P.G.
Change of E.P.G. 14th day [1, 6]: 1,000 E.P.G.
Change of E.P.G. 14th day [1, 4]: 0 E.P.G.
Change of E.P.G. 21st day [1, 4]: 0 E.P.G.

C=CCON(CC=C)C(C)=O [Compound C1, N,O-diallyl-N-acetylhydroxyl- amine]
Change of E.P.G. 14th day ([1]; chicken, 25 ppm in feed): 100
Effect on adult filaria: Percent of worms killed [2, 5]: 76%

C=CCON(CC=C)C(=O)CC [Compound C2]
Change of E.P.G. 7th day ([1]; chicken, 25 ppm in feed): 10,600 and 7,400
Effect on adult filaria: Percent of worms killed [2, 5]: 61%

C=CCON(CC=C)C(=O)CCC [Compound C3]
Change of E.P.G. 7th day ([1]; chicken, 25 ppm in feed): 8,000 and 4,300
Change of E.P.G. 14th day ([1]; chicken, 25 ppm in feed): 2,300 and 1,000
Change of E.P.G. 21st day ([1]; chicken, 50 ppm in feed): 0

C=CCON(CC=C)C(=O)CCCCCCCCCCCCCCCCC [Compound C5]
Change of E.P.G. 7th day ([1]; chicken, 25 ppm in feed): 3,100 and 3,000
Change of E.P.G. 7th day ([1]; chicken, 50 ppm in feed): 1,800 and 1,200
Change of E.P.G. 21st day ([1]; chicken, 50 ppm in feed): 0

C=CCON(CC=C)C(=O)c1ccccc1 [Compound C6]
Change of E.P.G. 14th day ([1]; chicken, 25 ppm in feed): 0

C=CCON(CC=C)C(=O)c1ccc(F)cc1 [Compound C7]
Change of E.P.G. 14th day ([1]; chicken, 50 ppm in feed): 0

C=CCON(C=O)CC=C [Compound C8]
Change of E.P.G. 7th day ([1]; chicken, 25 ppm in feed): 5,800 and 5,300
Change of E.P.G. 14th day ([1]; chicken, 25 ppm in feed): 1,000
Change of E.P.G. 14th day ([1]; chicken, 50 ppm in feed): 100

C=CCON(CC=CC)C(C)=O [Compound C9]
Change of E.P.G. 7th day ([1]; chicken, 25 ppm in feed): 4,300 and 4,800

CC=CCON(CC=CC)C(C)=O [Compound C10]
Change of E.P.G. 14th day ([1]; chicken, 25 ppm in feed): 2,000 and 1,300
Change of E.P.G. 21st day ([1]; chicken, 50 ppm in feed): 0

C=CCNOCC.Cl [Compound D1, N-allyl-O-ethylhydroxylamine hydrochloride]
Change of E.P.G. 21st day ([1]; chicken, 50 ppm in feed): 0

C=CCNOCCC [Compound D2, N-allyl-0-propylhydroxylamine]
Change of E.P.G. 7th day ([1]; chicken, 25 ppm in feed): 8,400 and 4,700
Change of E.P.G. 21st day ([1]; chicken, 50 ppm in feed): 0

C=CCNOCC(C)C [Compound D3]
Change of E.P.G. 7th day ([1]; chicken, 25 ppm in feed): 8,400 and 5,400
Change of E.P.G. 14th day ([1]; chicken, 25 ppm in feed): 2,200 and 1,000
Change of E.P.G. 21st day ([1]; chicken, 50 ppm in feed): 0

C=CCNOCC=C [Compound D4]
Change of E.P.G. 7th day ([1]; chicken, 50 ppm in feed): 2,300 and 1,300
Change of E.P.G. 21st day ([1]; chicken, 50 ppm in feed): 0

C#CCONCC=C [Compound D5]
Change of E.P.G. 7th day ([1]; chicken, 25 ppm in feed): 2,800 and 3,500
Change of E.P.G. 7th day ([1]; chicken, 50 ppm in feed): 2,100 and 1,900
Change of E.P.G. 21st day ([1]; chicken, 50 ppm in feed): 0

C#CCNOCC.Cl [Compound D10, N-propargyl-O-ethylhydroxylamine hydrochloride]
Effect on adult filaria: Percent of worms killed [2, 7]: 71%

C#CCNOCC=C [Compound D13, N-propargyl-O-allylhydroxylamine]
Effect on adult filaria: Percent of worms killed ([2]; 20 mg/Kg x 3, subcutaneous injection, 20 mg/kg): 66%

C#CCNOCC#C [Compound D15]
Change of E.P.G. 21st day ([1]; chicken, 50 ppm in feed): 0

C#CCNOC.Cl [Compound D16, N-propargyl-O-methylhydroxylamine hydrochloride]
Change of E.P.G. 7th day ([1]; chicken, 25 ppm in feed, hydrochloride): 1,300 and 2,100
Change of E.P.G. 14th day ([1]; chicken, 50 ppm in feed): 0
Change of E.P.G. 21st day ([1]; chicken, 50 ppm in feed): 0
Effect on adult filaria: Percent of worms killed [2, 7]: 62%
